# In article PMC7866390, “A Novel Multiprotein Bridging Factor 1-Like Protein Induces Cyst Wall Protein Gene Expression and Cyst Differentiation in Giardia lamblia”:
# Chains of the proteins cited; added tags and fusions are not shown. Lines headed by an entry give the natural chain unless they say otherwise; changes in a name come on top.
# UniProt A8BZ03: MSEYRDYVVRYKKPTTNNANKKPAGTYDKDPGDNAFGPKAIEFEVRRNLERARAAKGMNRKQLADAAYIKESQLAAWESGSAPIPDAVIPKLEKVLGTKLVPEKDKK
# UniProt Q86R88: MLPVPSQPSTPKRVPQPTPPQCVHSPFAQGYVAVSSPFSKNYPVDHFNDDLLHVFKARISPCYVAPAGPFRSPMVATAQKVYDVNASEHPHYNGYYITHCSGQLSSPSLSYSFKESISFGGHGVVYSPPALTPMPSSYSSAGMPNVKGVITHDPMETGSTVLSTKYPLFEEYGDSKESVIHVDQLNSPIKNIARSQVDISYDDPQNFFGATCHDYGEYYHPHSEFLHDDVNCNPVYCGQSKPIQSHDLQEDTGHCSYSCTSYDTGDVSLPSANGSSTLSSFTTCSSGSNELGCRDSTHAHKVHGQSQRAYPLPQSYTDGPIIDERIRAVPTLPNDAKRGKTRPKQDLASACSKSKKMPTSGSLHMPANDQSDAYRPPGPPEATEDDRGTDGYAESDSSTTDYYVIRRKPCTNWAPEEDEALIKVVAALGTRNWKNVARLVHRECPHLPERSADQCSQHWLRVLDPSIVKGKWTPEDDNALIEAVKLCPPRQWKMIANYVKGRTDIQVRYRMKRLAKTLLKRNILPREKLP
# Results are given in words; binding and its absence hold for the method and conditions named. In cells and extracts the contact can be indirect. A result given as binding can be weak or reduced; the word gives no strength.
# Tests used:
# [1] = target: HA-tagged MBF1 protein of Giardia lamblia (Giardia lamblia) (UniProt A8BZ03); experiment: co-IP; lysates of stable transfectants cultured in encystation medium for 24 h; anti-HA antibody conjugated to beads; Western blot with anti-HA, anti-MBF1 or anti-Myb2, and anti-ISCS; control cell line 5'Δ5N-Pac
# [2] = target: Giardia lamblia Myb2 transcription factor, endogenous (Giardia lamblia (endogenous in WB clone C6)) (UniProt Q86R88); experiment: co-IP; reciprocal immunoprecipitation: lysates of stable transfectants cultured in encystation medium for 24 h; 2 μg anti-MBF1 antibody (anti-Myb2 for the Myb2 pair) or preimmune serum for 2 h, then protein G plus/protein A-agarose for 1 h; Western blot with anti-HA
Substance,binding [1],binding [2]
"Giardia lamblia Myb2 transcription factor, endogenous (from UniProt Q86R88)",binds,–
HA-tagged MBF1 protein of Giardia lamblia (from UniProt A8BZ03),–,binds
